{
  "sequences": {"note": "Chains of the proteins cited; added tags and fusions are not shown. Residues count along the entry.", "UniProt P02769, residues 25-607": "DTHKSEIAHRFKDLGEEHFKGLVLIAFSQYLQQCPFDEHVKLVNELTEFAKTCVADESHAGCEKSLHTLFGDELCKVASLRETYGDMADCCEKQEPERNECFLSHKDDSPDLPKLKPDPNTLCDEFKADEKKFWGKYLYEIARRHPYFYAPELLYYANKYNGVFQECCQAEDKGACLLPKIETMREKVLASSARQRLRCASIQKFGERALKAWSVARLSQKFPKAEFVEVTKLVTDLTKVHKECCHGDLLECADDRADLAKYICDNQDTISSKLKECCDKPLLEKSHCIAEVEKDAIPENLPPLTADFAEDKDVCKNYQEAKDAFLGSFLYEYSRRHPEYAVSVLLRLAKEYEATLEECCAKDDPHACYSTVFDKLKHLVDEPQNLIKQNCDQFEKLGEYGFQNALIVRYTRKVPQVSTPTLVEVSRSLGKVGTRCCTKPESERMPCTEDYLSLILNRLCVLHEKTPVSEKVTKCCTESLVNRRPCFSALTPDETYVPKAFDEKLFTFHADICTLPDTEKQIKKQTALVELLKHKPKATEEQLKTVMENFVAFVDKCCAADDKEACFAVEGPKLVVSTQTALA"},
  "source": "paper PMC5083101",
  "note": "These are yes or no findings as the source states them, for the method shown. In cells and extracts the contact can be indirect. Some binding calls cover weakened binding; strength is not graded here.",
  "data": [
    {"target": "T1, alpha-dystroglycan (rabbit skeletal muscle) (rabbit (endogenous in skeletal muscle)) (UniProt Q28685)", "T1 sequence": "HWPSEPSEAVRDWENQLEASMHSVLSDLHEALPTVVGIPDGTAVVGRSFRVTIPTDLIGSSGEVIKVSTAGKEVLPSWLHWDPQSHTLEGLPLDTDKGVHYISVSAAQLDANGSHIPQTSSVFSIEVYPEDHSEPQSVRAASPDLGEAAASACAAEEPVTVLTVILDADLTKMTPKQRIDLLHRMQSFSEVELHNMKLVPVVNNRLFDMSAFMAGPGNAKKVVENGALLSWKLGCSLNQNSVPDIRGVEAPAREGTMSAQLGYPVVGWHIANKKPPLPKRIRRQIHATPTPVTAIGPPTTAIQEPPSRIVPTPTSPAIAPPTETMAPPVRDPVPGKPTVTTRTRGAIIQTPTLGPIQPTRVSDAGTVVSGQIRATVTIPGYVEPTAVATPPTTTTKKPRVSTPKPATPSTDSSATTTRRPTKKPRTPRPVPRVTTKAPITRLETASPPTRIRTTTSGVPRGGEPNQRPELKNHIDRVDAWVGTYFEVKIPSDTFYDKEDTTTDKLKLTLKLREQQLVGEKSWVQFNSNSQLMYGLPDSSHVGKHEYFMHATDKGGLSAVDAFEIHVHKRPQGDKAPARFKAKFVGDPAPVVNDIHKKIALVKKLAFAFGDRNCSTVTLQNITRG", "test": "co-IP; anti-α-DG antibody IIH6 coupled to CNBr-activated Sepharose; WGA-enriched, digitonin-solubilised rabbit skeletal muscle microsomes; 0.1% digitonin, 50 mM Tris-HCl pH 7.4, 150 mM NaCl; eluted in 0.1 M triethylamine pH 11.5; Western blot", "values": [
      {"binder": "alpha-sarcoglycan (rabbit skeletal muscle) (protein, UniProt Q28686 25-387) QQTTLYPLVGRVFVHTLEPASFLHLPEHAAPATIPVTYHAHLQGHPDLPRWLRYTQRSPHHPGFLYGAATPEDRGRQVIEVTAYNRDSFDTAGQSLVLLIRDPEGSPLPYQTEFLVRSHDVEEVLPPTPASHFLTALAGLWEPGELKLLNITSALDRGGRVPLPIGGQKEGVYIKVGSASPFSTCLKMVASPDSHARCARGQPPLLSCYDTLAPHFRVDWCNVSLVDTSVPEPVDEVPTPGDGILEHDPFFCPPTEATARDFLADALVTLLVPLLVALLLALLLAYIMCCRREGRLKRDLATSDIQMVHHCTIHENTEELRQMAASREVPRPLFPLPMFNVRTGERMPPRVDSAQVPLILDQH", "binding": "binds"}
    ]},
    {"target": "bovine serum albumin (bovine) (UniProt P02769)", "test": "pull-down; negative control of the immunoprecipitation: BSA coupled to CNBr-activated Sepharose; WGA-enriched, digitonin-solubilised rabbit skeletal muscle microsomes; 0.1% digitonin, 50 mM Tris-HCl pH 7.4, 150 mM NaCl; Western blot; only the target purified", "values": [
      {"binder": "alpha-sarcoglycan (rabbit skeletal muscle) (protein, UniProt Q28686 25-387) QQTTLYPLVGRVFVHTLEPASFLHLPEHAAPATIPVTYHAHLQGHPDLPRWLRYTQRSPHHPGFLYGAATPEDRGRQVIEVTAYNRDSFDTAGQSLVLLIRDPEGSPLPYQTEFLVRSHDVEEVLPPTPASHFLTALAGLWEPGELKLLNITSALDRGGRVPLPIGGQKEGVYIKVGSASPFSTCLKMVASPDSHARCARGQPPLLSCYDTLAPHFRVDWCNVSLVDTSVPEPVDEVPTPGDGILEHDPFFCPPTEATARDFLADALVTLLVPLLVALLLALLLAYIMCCRREGRLKRDLATSDIQMVHHCTIHENTEELRQMAASREVPRPLFPLPMFNVRTGERMPPRVDSAQVPLILDQH", "binding": "no binding"},
      {"binder": "alpha-dystroglycan (rabbit skeletal muscle) (protein, UniProt Q28685 30-653) HWPSEPSEAVRDWENQLEASMHSVLSDLHEALPTVVGIPDGTAVVGRSFRVTIPTDLIGSSGEVIKVSTAGKEVLPSWLHWDPQSHTLEGLPLDTDKGVHYISVSAAQLDANGSHIPQTSSVFSIEVYPEDHSEPQSVRAASPDLGEAAASACAAEEPVTVLTVILDADLTKMTPKQRIDLLHRMQSFSEVELHNMKLVPVVNNRLFDMSAFMAGPGNAKKVVENGALLSWKLGCSLNQNSVPDIRGVEAPAREGTMSAQLGYPVVGWHIANKKPPLPKRIRRQIHATPTPVTAIGPPTTAIQEPPSRIVPTPTSPAIAPPTETMAPPVRDPVPGKPTVTTRTRGAIIQTPTLGPIQPTRVSDAGTVVSGQIRATVTIPGYVEPTAVATPPTTTTKKPRVSTPKPATPSTDSSATTTRRPTKKPRTPRPVPRVTTKAPITRLETASPPTRIRTTTSGVPRGGEPNQRPELKNHIDRVDAWVGTYFEVKIPSDTFYDKEDTTTDKLKLTLKLREQQLVGEKSWVQFNSNSQLMYGLPDSSHVGKHEYFMHATDKGGLSAVDAFEIHVHKRPQGDKAPARFKAKFVGDPAPVVNDIHKKIALVKKLAFAFGDRNCSTVTLQNITRG", "binding": "no binding"},
      {"binder": "beta-dystroglycan (rabbit skeletal muscle) (protein, UniProt Q28685 654-895) SIVVEWTNNTLPLEPCPKEQITGLSRRIAEDNGQPRPAFTNALEPDFKATSIAITGSGSCRHLQFIPVAPPGIPSSVTPPTEVPDRDPEKSSEDDVYLHTVIPAVVVAAILLIAGIIAMICYRKKRKGKLTLEDQATFIKKGVPIIFADELDDSKPPPSSSMPLILQEEKAPLPPPEYPSQSVPETTPLNQDTVGEYTPLRDEDPNAPPYQPPPPFTAPMEGKGSRPKNMTPYRSPPPYVPP", "binding": "no binding"},
      {"binder": "beta-sarcoglycan (rabbit skeletal muscle) (protein, UniProt Q28635 1-318) MAAAAAAAAEQQSSNGPVKKSMREKAVERRNVNKEHNSNFKAGYIPIDEDRLHKTGLRGRKGNLAICVIVLLFLLAVINLIITLVIWAVIRIGPNGCDSMEFHESGLLRFKQVSDMGVIHPLYKSTVGGRRNENLVITGNNQPIVFQQGTTKLSVEKNKTSITSDIGMQFFDPRTQNILFSTDYETHEFHLPSGVKSLNVQKASTERITSNATSDLNIKVDGRAIVRGNEGVFIMGKTIEFHMGGNMELKAENSIILNGTVMVSTTRLPSSSSADQLGGGDWVRYKLCMCADGTLFKVQVTGQNVGCQVSDNPCGNTH", "binding": "no binding"},
      {"binder": "delta-sarcoglycan (rabbit skeletal muscle) (protein, UniProt G1SGL0 1-324) MYRQQPAISLHQLIFPFPFSQQFNGSASLLPCLFQMPQEQYTHHRSTMPSAEGPQVYKVGIYGWRKRCLYFFVLLLMILILVNLAMTIWILKVMNFTIDGMGNLRITEKGLKLEGDSEFLQPLYAKEIQSRPGNALYFKSARNVTVNILNDQTKVLTQLITGPKAVEAYGKKFEVKTVSGKLLFSADDNEVVVGAERLRVLGAEGTVFPKSIETPNVRADPFKELRLESPTRALVMEAPKGVEINAEAGNMEATCRTELRLESKDGEIKLDAAKIKLPRLPHGSYTPTGTRQKVFEICVCANGRLFLSQAGTGSTCQINTSVCL", "binding": "no binding"}
    ]}
  ]
}
